# Data as given in PubChem BioAssay (NCATS).
# Protein sequences, listed by entry. Tags and fused reporters are not part of them. Lines headed by an entry give the natural chain unless they say otherwise; changes in a name come on top.
# UniProt P08482: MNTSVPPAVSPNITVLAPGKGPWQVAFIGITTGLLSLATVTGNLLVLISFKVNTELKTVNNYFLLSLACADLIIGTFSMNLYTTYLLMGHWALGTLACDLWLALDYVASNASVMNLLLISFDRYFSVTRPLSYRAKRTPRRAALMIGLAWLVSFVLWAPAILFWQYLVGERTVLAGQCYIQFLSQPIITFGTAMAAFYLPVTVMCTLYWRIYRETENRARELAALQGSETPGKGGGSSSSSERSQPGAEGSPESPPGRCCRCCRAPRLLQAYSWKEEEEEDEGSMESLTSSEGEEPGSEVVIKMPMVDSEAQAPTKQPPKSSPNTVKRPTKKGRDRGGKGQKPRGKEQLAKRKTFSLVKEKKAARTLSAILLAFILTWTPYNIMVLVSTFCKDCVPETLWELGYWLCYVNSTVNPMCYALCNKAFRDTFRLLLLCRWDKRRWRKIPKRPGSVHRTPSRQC
# UniProt O15648: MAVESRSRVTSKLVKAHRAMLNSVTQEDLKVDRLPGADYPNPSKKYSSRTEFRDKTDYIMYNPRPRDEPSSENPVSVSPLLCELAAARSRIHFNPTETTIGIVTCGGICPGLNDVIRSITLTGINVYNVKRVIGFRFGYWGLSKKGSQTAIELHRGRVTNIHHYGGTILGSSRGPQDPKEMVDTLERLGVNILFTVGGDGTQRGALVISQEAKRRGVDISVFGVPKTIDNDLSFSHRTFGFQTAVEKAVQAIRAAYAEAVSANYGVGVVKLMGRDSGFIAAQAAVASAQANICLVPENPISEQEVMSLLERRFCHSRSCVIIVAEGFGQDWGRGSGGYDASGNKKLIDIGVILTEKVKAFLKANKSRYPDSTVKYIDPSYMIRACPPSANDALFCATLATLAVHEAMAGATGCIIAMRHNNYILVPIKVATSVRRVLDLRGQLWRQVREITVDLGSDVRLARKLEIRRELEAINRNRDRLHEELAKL
# UniProt O89049, whole entry, looked up: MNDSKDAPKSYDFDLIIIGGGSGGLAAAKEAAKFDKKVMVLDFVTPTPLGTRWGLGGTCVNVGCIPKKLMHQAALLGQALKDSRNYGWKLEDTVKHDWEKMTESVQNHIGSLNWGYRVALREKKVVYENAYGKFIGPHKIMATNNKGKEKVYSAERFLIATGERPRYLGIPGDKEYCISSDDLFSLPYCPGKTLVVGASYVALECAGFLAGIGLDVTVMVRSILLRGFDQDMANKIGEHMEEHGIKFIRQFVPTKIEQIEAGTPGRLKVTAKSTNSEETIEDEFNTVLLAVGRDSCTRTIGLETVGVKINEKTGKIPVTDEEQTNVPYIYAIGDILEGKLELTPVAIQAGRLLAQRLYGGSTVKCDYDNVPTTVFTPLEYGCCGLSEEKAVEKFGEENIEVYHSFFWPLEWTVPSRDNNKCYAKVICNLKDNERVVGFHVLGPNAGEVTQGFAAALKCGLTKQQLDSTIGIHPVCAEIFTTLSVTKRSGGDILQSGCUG
# UniProt P83916, whole entry, looked up: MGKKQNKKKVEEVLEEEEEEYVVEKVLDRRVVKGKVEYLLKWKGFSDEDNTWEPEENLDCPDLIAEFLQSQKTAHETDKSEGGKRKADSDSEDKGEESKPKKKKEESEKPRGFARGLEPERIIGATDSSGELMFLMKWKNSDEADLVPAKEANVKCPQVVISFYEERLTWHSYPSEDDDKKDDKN
# UniProt Q8NER1, whole entry, looked up: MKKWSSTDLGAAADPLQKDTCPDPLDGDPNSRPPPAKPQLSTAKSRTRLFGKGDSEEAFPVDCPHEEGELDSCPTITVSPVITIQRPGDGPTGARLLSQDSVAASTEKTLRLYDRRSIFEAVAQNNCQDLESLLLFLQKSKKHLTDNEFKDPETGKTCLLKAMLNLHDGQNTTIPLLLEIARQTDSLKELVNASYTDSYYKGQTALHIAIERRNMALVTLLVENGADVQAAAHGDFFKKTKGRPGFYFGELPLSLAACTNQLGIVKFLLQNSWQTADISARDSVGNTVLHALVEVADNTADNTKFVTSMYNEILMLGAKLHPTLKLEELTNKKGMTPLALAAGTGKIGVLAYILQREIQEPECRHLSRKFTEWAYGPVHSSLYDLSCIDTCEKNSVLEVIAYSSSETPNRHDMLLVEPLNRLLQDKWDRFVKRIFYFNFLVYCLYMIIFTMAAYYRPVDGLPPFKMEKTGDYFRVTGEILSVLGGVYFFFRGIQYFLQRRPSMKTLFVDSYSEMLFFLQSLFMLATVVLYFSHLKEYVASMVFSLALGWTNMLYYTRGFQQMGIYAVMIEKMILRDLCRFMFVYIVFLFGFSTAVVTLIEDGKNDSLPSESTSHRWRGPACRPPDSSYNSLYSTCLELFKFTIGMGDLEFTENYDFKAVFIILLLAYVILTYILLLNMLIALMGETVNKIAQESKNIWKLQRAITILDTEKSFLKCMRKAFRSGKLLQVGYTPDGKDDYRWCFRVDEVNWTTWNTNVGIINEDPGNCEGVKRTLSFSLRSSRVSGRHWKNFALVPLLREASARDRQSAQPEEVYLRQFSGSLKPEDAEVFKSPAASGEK
# UniProt P21728, whole entry, looked up: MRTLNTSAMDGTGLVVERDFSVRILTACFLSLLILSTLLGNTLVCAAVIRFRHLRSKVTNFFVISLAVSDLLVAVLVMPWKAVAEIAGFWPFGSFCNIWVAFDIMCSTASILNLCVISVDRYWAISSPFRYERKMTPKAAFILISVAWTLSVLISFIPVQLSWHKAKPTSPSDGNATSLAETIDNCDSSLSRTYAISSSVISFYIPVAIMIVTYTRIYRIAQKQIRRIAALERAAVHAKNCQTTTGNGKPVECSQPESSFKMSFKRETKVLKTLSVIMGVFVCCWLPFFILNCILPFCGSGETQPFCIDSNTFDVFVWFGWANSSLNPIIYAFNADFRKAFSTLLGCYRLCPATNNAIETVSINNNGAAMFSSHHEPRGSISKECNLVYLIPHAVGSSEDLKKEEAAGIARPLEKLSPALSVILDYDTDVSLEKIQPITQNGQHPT
# The inconclusive results got no clear call from the source; some entries with a clear call stand among them for comparison. For part of these data: Where the call is inconclusive, the potency comes from a doubtful curve fit. Active and inactive are the calls of the source. Unless noted, calls follow the shape of the dose curve; as a rule, active = well fitted curve in the direction sought with a large enough effect; inconclusive = small, poorly fitted or top-dose-only effect, or another doubt; inactive = no such curve, though single readings can be large; an effect the other way counts as inactive or inconclusive.
# Tests used:
# [1] = Stat Signaling Pathway (AID 446; active = well fitted curve in either direction with a large enough effect, not every such curve was filed as active; inconclusive = small, poorly fitted or top-dose-only effect, or another doubt;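 also: ME-180 cervical cancer cells given 40 pM IL-6 alongside compound; SIE-controlled beta-lactamase reporter measured as 460/530 nm FRET emission ratio; % is scaled to controls: 0 for no effect and ±100 for the full control effect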); details: ME-180 (cervical carcinoma) SIE beta-lactamase reporter, IL-6 stimulated, 5 h; at 38 µM (top of the series)
# In short: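 Emission at 460 and 530 nm (excitation 405 nm) reports SIE-controlled beta-lactamase in ME-180 cells. Cells received compound with 40 pM IL-6 for 5 hrs at 37 C; data scaled between 300 pM IL-6 and 125 nM JAK-inhibitor controls.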
# [2] = biological target: Mitogen-activated protein kinase 10 (Mus musculus) (UniProt Q61831); assay: JNK3 AlphaScreen Assay (AID 530; active = well fitted curve in either direction with a large enough effect, not every such curve was filed as active; inconclusive = small, poorly fitted or top-dose-only effect, or another doubt;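 also: kinase came from lysate of stimulated human HepG2 cells; signal reports phosphorylation of biotinylated GST-cJun 1-79 at Ser73 with 10 µM ATP; % is scaled to controls: 0 for no effect and ±100 for the full control effect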); details: JNK3 lysate, c-Jun phosphorylation; activity change, negative = inhibition: at 57.1 µM (top of the series)
# In short: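 HepG2 lysate (IL-1b/TNFa pre-activated) + biotin-GST-cJun 1-79 + anti-pSer73 cJun; cpd titration, 15 min RT; ATP 10 uM start; Tris pH 7.6, MgCl2, DTT, vanadate; beads in EDTA buffer; AlphaScreen.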
# [3] = qHTS Assay for Identification of Small Molecule Antagonists for Thrombopoietin (TPO) Signaling Pathway (AID 918); details: TPO-dependent cell signaling reporter, antagonist mode; activity change, negative = inhibition: at 38.5 µM (top of the series)
# In short: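 Antagonist mode at EC50 TPO (26 pM) in IL-3-free medium; murine Ba/F3 cells with human TPO receptor and GPIIb-promoter luciferase, 24 hrs at 37 C before luminescent detection.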
# [4] = biological target: Muscarinic acetylcholine receptor M1 (Rattus norvegicus) (UniProt P08482); assay: qHTS Assay for Antagonists of Acetylcholine Muscarinic M1 Receptor: Kinetic Measurement of Intracellular Calcium Response (AID 943);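 also: Fluo-4 calcium signal as peak divided by basal fluorescence over 4 min; nearly all actives have a fitted effect of over 75% in size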
# In short: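 Quantitative HTS in CHO-M1 (rat receptor) cells: 10 min compound exposure ahead of 100 nM carbachol, Fluo-4 fluorescence followed 4 min, value expressed as peak-to-basal ratio.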
# [5] = biological target: Endonuclease 4 (Escherichia coli (strain K12)) (UniProt P0A6C1); assay: Counterscreen for APE1 Inhibitors: qHTS Validation Assay for Inhibitors of Endonuclease IV (AID 1708); also: % is scaled to controls: 0 for no effect and ±100 for the full control effect
# In short: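 Read-out: fluorescence rise (ex 525/em 598 nm) from incision of a TAMRA/BHQ-2 double-stranded THF abasic-site substrate (50 nM), measured kinetically; third-minus-first read difference gave reaction progress. Enzyme 2 nM.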
# [6] = qHTS for differential inhibitors of proliferation of Plasmodium falciparum line GB4 (AID 1816); details: Potency: Plasmodium falciparum GB4 proliferation inhibition;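 also: potency is read from the fitted curve at half-maximal effect; parasite growth measured after 72 h incubation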
# [7] = qHTS for differential inhibitors of proliferation of Plasmodium falciparum line Dd2 (AID 1882); details: Potency: Plasmodium falciparum Dd2 proliferation inhibition; also: potency is read from the fitted curve at half-maximal effect; nearly all actives have a fitted effect of over 65% in size
# In short: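 RBC culture, 0.3% parasitemia / 2.5% Hct final; cpd added by pin tool in DMSO; 72 h, 37 C, 5% CO2; lysis buffer + SYBR Green I, o/n RT dark; FI 485/535; norm. to artemisinin 0.29 uM and DMSO.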
# [8] = qHTS for differential inhibitors of proliferation of Plasmodium falciparum line W2 (AID 1883); details: Potency: Plasmodium falciparum W2 proliferation inhibition;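 also: potency is read from the fitted curve at half-maximal effect; parasites grown with compound for 72 h before lysis and staining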
# [9] = High Content Imaging Cell-Based qHTS for Inhibitors of the mTORC1 Signaling Pathway in MEF Cells (AID 2667); also: potency is read from the fitted curve at half-maximal effect
# In short: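 Read-out is the share of phospho-rpS6-positive cells per well, from Hoechst-normalized Alexa-488 Ser235/236 staining imaged on IN Cell. Cells: WT Tsc2-expressing Tsc2-/-, p53-/- MEFs exposed to compound for 24 hrs.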
# [10] = Cytometry Cell-Based qHTS for Inhibitors of the mTORC1 Signaling Pathway in MEF cells (AID 2668); also: potency is read from the fitted curve at half-maximal effect
# In short: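 MEFs (Tsc2-/-, p53-/- stably expressing WT Tsc2) treated 24 h at 37 degree Celsius, fixed, stained with Alexa-488 anti-phospho-rpS6 Ser235/236 and propidium iodide; Acumen laser scanning. Reported as % positive cells, phospho-S6 normalized to PI.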
# [11] = Validation screen for small molecules that induce DNA re-replication in MCF 10A normal breast cells (AID 463097); also: potency is read from the fitted curve at half-maximal effect; nearly all actives have a fitted effect of over 60% in size
# In short: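 MCF 10A cells exposed to compound 48 hr at 37 C, 5% CO2, then Hoechst-stained 40 min. Laser-scanning imaging of nuclear DNA content (405 nm ex, 500-530 nm em); re-replication scored as rise in nuclei with elevated fluorescence intensity.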
# [12] = biological target: ATP-dependent 6-phosphofructokinase (Trypanosoma brucei brucei) (UniProt O15648); assay: qHTS Validation Assay to Find Inhibitors of T. brucei phosphofructokinase (AID 485368); details: activity change, negative = inhibition: at 57.5 µM (top of the series); also: potency is read from the fitted curve at half-maximal effect
# In short: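 qHTS format, up to 57 uM. PFK 1.25 nM; F6P 0.5 mM; ATP 0.1 mM; 5 mM MgCl2, 0.01% Tween20, 0.1% BSA; 0.1 M TEA pH 8.0; 45 min RT; ADP-Glo readout; no-enzyme control = full inhibition.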
# [13] = Quantitative high throughput screen for delayed death inhibitors of the malarial parasite plastid, 96 hour incubation (AID 488745); also: % is scaled to controls: 0 for no effect and ±100 for the full control effect; nearly all actives have a fitted effect of over 70% in size
# In short: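 Two-generation (96 h) exposure of luciferase-reporter P. falciparum in erythrocytes, 2% hematocrit, 0.1% parasitemia final, 37 C, 5% CO2, RPMI 1640 with 0.5% Albumax. Growth inhibition scored by reduced luminescence.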
# [14] = biological target: Thioredoxin reductase 1, cytoplasmic (Rattus norvegicus) (UniProt O89049); assay: qHTS Assay for Inhibitors of Mammalian Selenoprotein Thioredoxin Reductase 1 (TrxR1) (AID 488773); details: Potency: inhibition; also: potency is read from the fitted curve at half-maximal effect; nearly all actives have a fitted effect of over 40% in size
# In short: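 Inhibition is scored from the loss of NADPH fluorescence between first and last reads of an 8-min kinetic run. Selenite (400 uM) was the substrate, added after 15 min compound preincubation at room temperature.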
# [15] = biological target: Chromobox protein homolog 1 (Homo sapiens) (UniProt P83916); assay: qHTS Validation Assay for Inhibitors of HP1-beta Chromodomain Interactions with Methylated Histone Tails (AID 488953); also: potency is read from the fitted curve at half-maximal effect; nearly all actives have a fitted effect of over 50% in size
# In short: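 Compounds pinned into a preassembled complex of HP1-beta and trimethyl-K9 histone H3(1-18) biotin peptide (50 nM each; PBS pH 7.4, 0.01% Tween-20). After 30 min, bead-based AlphaScreen detection followed.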
# [16] = biological target: Transient receptor potential cation channel subfamily V member 1 (Homo sapiens) (UniProt Q8NER1); assay: HTS Assay for Compounds that Act as Enhancers of the Vanilloid Receptor 1 (AID 488979)
# In short: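 TRPV1 cells loaded with Fluo-8 calcium dye; compound added and Ca2+ signal (ex 480/em 520 nm) followed 3 min, then capsaicin at EC20 added and read 2 more min to detect enhancement.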
# [17] = biological target: D(1A) dopamine receptor (Homo sapiens) (UniProt P21728); assay: HTS Assay for Allosteric Agonists of the Human D1 Dopamine Receptor: Primary Screen for Agonists (AID 488981); also: potency is read from the fitted curve at half-maximal effect
# In short: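 Tetracycline-induced HEK293 Trex D1 cells with forced coupling to calcium, loaded with no-wash calcium dye; kinetic fluorescence read 180 s after compound addition for agonism, then a further 180 s after an EC20 dopamine challenge for potentiation.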
# [18] = biological target: D(1A) dopamine receptor (Homo sapiens) (UniProt P21728); assay: HTS Assay for Allosteric Agonists of the Human D1 Dopamine Receptor: Primary Screen for Antagonists (AID 488983); details: D1 receptor cell assay, antagonist mode, qHTS titration; activity change, negative = inhibition: at 41.8 µM (top of the series);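 also: calcium flux response to an EC80 dopamine challenge measured with no-wash dye; potency is read from the fitted curve at half-maximal effect; nearly all actives have a fitted effect of over 65% in size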
# In short: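 In this primary screen, compounds are applied to calcium-dye-loaded HEK293 T-REx cells with force-coupled D1 expression induced overnight at 30 C. An EC80 of dopamine follows the 180 s compound phase, and calcium is monitored for a further 180 s.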
smiles,measurement,setting,value
O=S(=O)(c1cccc2c(I)cccc12)N1CCCNCC1,"activity, negative = inhibition",[1],inconclusive: -79.5% [inhibitor]
same,Potency,[2],inactive
same,"activity change, negative = inhibition",[3],inconclusive: -6.42% [phenotype inactive]
same,Potency,[4],inactive
same,Potency,[5],inactive
same,Potency,[6],"inconclusive: 12.6 µM [inhibitor, partial curve]"
same,Potency,[7],"inconclusive: 10 µM [inhibitor, partial curve]"
same,Potency,[8],active: 7.08 µM
same,Potency,[9],"inconclusive: 26.1 µM [falling, single point]"
same,Potency,[10],"inconclusive: 18.5 µM [falling, single point]"
same,Potency,[11],"inconclusive: 6.31 µM [activator, single point]"
same,Potency,[12],"inconclusive: 37.9 µM [activator, partial curve, poor fit]"
same,Potency,[13],inactive
same,Potency,[14],"inconclusive: 37.7 µM [inhibitor, partial curve, poor fit]"
same,Potency,[15],"inconclusive: 56.2 µM [inhibitor, partial curve]"
same,Potency,[16],"inconclusive: 17.8 µM [activator, single point]"
same,Potency,[17],active: 14.1 µM
same,Potency,[18],"inconclusive: 31.6 µM [inhibitor, single point]"

# Rewritten tab-delimited: entries from further up.
smiles	measurement	setting	value
O=S(=O)(c1cccc2c(I)cccc12)N1CCCNCC1	Potency	[2]	inactive
same	activity change, negative = inhibition	[3]	inconclusive: -6.42% [phenotype inactive]
